## Results from one PubChem assay

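Luminescence from an EWS-FLI1 target-promoter (NR0B1) reporter, set against a CMV-promoter reporter, two days after silencing single genes in TC32 Ewing sarcoma cells. Each siRNA was applied at 20 nM. A z-score of the log NR0B1-over-CMV signal, less the median of siRNAs with the same seed; more negative means a stronger specific loss of the NR0B1 reporter.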

The strongest results of the screen are mostly left out here. Sequences are the guide (antisense) strand, without overhang.

| Sequence | target gene | seed-corrected z-score |
|---|---|---|
| `AGCAUGUUAGUUUCUCUCC` | DRC7 | 0.5022 |
| `UUAGUUCCCUCCGACACUC` | SYNE2 | 0.9054 |
| `UAUGAUCUCGAAGGCAUGC` | RPS5 | 1.963 |
| `UAAGGUACAUGAUAAAUCA` | C14orf142 | 1.005 |
| `UCUGGAUUUAAUACAAUCC` | SLC25A2 | 0.4069 |
| `UACUUGAUGACGGUGUCCA` | CPLX1 | 0.306 |
| `UCUGUGGAAACGAUGAGAC` | RNF4 | 0.3265 |
| `UACAGUUUCUGUGUAGGGU` | LOC646629 | 0.7019 |
| `UUCGUUUGAUUAUCUCAUG` | STOX1 | -0.7191 |
| `UAGAUCUUCUCUUUAAUCC` | ERH | -0.9272 |
| `UUCGGUAAGAGUCGUUGCC` | MBD4 | -0.4401 |
| `UAUGCAAUAAGAUCUCUGC` | DNMT3L | -0.4814 |
| `UUGUUGGACAGUGAGAUGA` | FAM46B | -0.1212 |
| `UCUCUUUGCAGAAUUGAGC` | GART | -0.5054 |
| `AAACUUGUCAUUGACGAAG` | ZC3H12A | 0.6048 |
| `UCCUCUUCAGUAGUGUCUC` | SCHIP1 | -0.6082 |
| `UUCAUCUAAAGUUACGAUG` | KCNIP1 | 0.09983 |
| `UACUCGGCCCUCAAUAUCC` | FBXL20 | -0.09489 |
| `UUUAAUCUUCUCCCUGUCG` | PLEKHS1 | -0.4705 |
| `UUCUAGUUCAUCACCCAUG` | TWISTNB | -0.1904 |
| `UGAUCUAUAAUUCCAGCAG` | WDR7 | -1.944 |
| `UUUGCUAGAUUCAUAAAGC` | ZNF416 | -0.08509 |
| `UUCACUCCCACGUUCACCU` | CNN1 | -0.2487 |
| `UGAACAACCAGCAGGUUGG` | ZNF628 | 0.8939 |
| `UCUAUGUACUUUGGGAUCC` | FAAHP1 | -0.2225 |
| `UUAUAGUCCUGAGCAGUUC` | TBRG1 | -0.3759 |
| `UUCUUCACGAUCAAUAUCA` | JAML | -0.2108 |
| `UUUCUGGUUGUUGCAGCGG` | LRP3 | -1.213 |
| `UCAGGGAAGUCAAUUGUGC` | CALM2 | 0.4146 |
| `AUAGACAUUCCGGAUGGGC` | RPL13P12 | -0.1441 |
| `UUAGACUUGAUUGUGCUCA` | BRD4 | -1.968 |
| `AAGAUGAUCACAUCGAUCG` | GPAT4 | 1.013 |
| `AAUGAGUCAACCUCAUACC` | IFNAR1 | 0.5495 |
| `AUUCUCGUAAAGGUGGUCG` | DIP2C | 0.7087 |
| `UUCAGCACCACCUUAGAGC` | HCG27 | 1.177 |
| `UUGCUUCUAAUCAACUCCU` | C8orf86 | -1.331 |
| `AGAACUAUCAGCAUAGAGG` | EHBP1 | 0.8338 |
| `AUCUGAAUAAUUACCUUCC` | MGC70870 | -0.8794 |
| `UCCUUGUAGCUUACUGGUG` | GTF2IRD1P1 | 0.943 |
| `UAACAGACCAGGUCCACGA` | OGDHL | 0.02791 |
| `UAUAGACUAAAAUCCUCUG` | BRAF | -1.08 |
| `UUUCCUUAUCAAUAACUGC` | SDE2 | 0.6646 |
| `UCACGUAAUUGUCUCACUC` | ARHGAP6 | 1.294 |
| `UUCUCAAUCAUGGUGUCGU` | LHX6 | -0.7629 |
| `UCAGUAUGAACACUGGUGG` | SLF1 | -0.747 |
| `UUCGUUGAUAGAAGAGUCG` | LGALS16 | -1.157 |
| `UUGGAGAUCUUGUUCAGGG` | HCAR3 | -0.3772 |
| `AACGCAAUGAAGAUGGAGC` | SHISA3 | -0.2449 |
| `UUUGUAGGGACAGUCAGGC` | B4GALNT3 | -0.0834 |
| `UUCUCGUCAUGGUAACUGC` | C2orf44 | 0.173 |
| `UUUUGUCCUGAACCGAUCC` | ANKRD6 | 0.5992 |
| `AUCUUGACCAGUCAUUUGG` | HS3ST4 | -1.056 |
| `UCUGAAAAGAGUCAGCAGC` | C17orf62 | 0.06492 |
| `UUUGUCGUAAAACAGACUC` | TMPRSS11D | -0.5114 |
| `UCAUCCACCAACUUGAUGC` | SMG9 | -0.7054 |
| `UAGCUUACUUGGAUGUUGG` | GRIN3A | -1.705 |
| `AACUCGGUAACUGCAGUCG` | DNAJC27-AS1 | -0.2475 |
| `UUACUAGUUUAUCUACUGC` | FAM175A | -0.6046 |
| `UGUUAGAUAGGCACUCUCG` | THOC5 | 1.076 |
| `UAUUCUUCUAACUCAGUUG` | ANKRD20A12P | -0.8369 |
| `AUACGAUUGAGAAUACAUC` | USP9X | -0.426 |
| `UUCACGGCCGCUAUAACGC` | LY6K | 0.2582 |
| `UUCCAUAUUUGUGCAGAAG` | OR7C2 | -0.2666 |
| `UCAGACUCAUGAGUGGUGC` | GGT2 | -0.07287 |

For reference, 3 entries once more:

Sequence	target gene	seed-corrected z-score
UAGAUCUUCUCUUUAAUCC	ERH	-0.9272
UCCUCUUCAGUAGUGUCUC	SCHIP1	-0.6082
UCUGGAUUUAAUACAAUCC	SLC25A2	0.4069

The results are deposited in PubChem (AID1159506; NCATS, 2015).